Experimental data as given in the supplement of paper PMC10849652.
Some of the results follow.

By UniProt entry, the sequences of proteins in these tests, tags left out. Where a name states a change or a piece, a line headed by the entry shows the natural chain unless it says otherwise.
UniProt Q8WUF8: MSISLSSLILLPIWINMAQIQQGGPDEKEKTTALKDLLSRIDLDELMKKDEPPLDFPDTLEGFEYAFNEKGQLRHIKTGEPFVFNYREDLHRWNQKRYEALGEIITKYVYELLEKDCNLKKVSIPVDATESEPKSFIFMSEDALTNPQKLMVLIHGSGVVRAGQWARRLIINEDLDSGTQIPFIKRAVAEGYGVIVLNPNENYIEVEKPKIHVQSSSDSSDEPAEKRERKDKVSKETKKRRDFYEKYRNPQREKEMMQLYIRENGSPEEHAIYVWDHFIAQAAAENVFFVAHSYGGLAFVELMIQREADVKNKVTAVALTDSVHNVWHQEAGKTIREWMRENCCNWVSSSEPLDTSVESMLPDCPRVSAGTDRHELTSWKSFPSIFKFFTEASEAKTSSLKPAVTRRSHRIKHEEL
UniProt Q9UBQ6: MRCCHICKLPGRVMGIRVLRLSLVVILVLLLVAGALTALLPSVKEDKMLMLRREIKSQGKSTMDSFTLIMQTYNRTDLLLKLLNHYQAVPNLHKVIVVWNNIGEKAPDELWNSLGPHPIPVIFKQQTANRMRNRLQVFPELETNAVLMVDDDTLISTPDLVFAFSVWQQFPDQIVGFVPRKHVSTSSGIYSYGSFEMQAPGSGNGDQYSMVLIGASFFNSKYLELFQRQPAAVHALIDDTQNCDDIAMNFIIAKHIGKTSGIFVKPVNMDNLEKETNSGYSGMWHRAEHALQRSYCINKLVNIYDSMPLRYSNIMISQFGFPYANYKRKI
UniProt Q7Z2K6: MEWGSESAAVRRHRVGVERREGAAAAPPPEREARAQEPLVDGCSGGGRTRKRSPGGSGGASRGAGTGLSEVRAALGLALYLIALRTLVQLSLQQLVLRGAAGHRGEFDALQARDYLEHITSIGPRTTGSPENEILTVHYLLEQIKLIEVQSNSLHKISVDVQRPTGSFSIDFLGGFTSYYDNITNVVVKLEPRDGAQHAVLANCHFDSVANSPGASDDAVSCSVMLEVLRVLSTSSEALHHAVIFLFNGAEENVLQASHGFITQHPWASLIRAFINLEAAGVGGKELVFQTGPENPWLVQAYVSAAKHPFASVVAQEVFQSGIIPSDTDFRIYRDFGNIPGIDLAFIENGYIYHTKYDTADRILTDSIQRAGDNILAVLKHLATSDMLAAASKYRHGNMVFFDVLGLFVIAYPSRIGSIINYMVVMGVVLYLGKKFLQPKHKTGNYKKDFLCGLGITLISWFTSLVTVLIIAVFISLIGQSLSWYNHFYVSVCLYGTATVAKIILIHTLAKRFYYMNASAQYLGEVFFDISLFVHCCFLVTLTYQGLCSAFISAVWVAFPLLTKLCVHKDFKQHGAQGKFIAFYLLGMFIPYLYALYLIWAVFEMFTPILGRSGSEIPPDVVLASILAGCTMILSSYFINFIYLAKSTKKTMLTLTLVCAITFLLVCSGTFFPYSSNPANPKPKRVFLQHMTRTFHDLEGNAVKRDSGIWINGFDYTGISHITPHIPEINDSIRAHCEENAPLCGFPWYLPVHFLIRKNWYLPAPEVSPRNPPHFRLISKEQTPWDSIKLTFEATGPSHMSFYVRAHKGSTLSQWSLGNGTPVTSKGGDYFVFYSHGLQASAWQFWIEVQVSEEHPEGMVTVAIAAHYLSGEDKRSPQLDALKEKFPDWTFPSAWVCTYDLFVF
UniProt Q96ND0: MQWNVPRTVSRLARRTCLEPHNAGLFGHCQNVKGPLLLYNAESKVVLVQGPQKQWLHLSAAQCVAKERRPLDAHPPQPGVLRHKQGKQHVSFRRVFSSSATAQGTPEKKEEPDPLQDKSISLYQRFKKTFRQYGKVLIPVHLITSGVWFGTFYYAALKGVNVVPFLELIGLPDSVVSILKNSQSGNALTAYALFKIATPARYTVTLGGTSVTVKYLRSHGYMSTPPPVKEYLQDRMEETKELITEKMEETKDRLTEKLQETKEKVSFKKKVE
UniProt Q9NV70: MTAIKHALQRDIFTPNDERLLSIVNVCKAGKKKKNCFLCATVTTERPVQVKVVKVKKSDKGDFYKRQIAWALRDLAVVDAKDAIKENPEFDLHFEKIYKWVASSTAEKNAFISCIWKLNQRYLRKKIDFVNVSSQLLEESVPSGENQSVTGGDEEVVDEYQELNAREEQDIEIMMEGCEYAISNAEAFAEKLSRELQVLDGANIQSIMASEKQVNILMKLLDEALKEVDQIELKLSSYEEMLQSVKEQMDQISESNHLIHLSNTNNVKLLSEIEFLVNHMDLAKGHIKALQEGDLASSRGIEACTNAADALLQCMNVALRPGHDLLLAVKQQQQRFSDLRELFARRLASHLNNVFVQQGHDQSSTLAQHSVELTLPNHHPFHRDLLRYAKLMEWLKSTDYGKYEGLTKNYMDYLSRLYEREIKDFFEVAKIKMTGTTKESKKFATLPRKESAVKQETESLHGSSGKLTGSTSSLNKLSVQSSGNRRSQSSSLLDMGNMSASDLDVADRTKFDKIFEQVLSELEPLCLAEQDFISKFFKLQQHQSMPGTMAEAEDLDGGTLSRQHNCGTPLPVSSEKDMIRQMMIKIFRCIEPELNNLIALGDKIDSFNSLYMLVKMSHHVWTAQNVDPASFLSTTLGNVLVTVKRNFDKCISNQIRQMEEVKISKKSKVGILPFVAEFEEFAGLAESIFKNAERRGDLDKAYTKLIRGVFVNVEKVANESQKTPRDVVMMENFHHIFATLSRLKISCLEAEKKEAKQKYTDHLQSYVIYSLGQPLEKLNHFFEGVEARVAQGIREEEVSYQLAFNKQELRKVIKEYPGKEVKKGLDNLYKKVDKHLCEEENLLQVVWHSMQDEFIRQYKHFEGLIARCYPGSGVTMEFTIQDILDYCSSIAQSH
UniProt Q9BPY3: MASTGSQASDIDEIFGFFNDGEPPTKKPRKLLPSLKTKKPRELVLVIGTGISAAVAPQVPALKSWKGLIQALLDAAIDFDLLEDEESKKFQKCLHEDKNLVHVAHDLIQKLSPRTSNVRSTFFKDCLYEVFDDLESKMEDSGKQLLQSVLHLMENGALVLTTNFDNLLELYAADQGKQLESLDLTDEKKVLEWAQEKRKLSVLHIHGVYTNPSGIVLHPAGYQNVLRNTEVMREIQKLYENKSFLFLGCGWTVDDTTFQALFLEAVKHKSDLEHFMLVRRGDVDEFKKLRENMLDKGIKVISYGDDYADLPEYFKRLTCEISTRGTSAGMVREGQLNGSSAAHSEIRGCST
UniProt Q5JUQ0: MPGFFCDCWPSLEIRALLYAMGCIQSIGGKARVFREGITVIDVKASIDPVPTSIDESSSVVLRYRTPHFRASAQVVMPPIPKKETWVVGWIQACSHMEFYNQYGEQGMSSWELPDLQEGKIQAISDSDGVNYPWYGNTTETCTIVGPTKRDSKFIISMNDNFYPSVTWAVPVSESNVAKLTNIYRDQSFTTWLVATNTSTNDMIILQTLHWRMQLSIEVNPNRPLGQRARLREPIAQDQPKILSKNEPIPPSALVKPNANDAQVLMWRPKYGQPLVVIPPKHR
UniProt O94905: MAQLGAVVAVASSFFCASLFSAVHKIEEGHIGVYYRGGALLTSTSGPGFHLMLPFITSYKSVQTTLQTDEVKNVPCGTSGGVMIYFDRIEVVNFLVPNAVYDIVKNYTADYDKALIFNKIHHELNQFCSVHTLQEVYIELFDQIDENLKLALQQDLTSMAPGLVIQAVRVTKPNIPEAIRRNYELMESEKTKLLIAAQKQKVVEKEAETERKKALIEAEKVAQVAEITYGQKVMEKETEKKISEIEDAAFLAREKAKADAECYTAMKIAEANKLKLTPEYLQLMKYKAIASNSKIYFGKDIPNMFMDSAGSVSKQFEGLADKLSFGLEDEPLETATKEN
UniProt Q6IPR1: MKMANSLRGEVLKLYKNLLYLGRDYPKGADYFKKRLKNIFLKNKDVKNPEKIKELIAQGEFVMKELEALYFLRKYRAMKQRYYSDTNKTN
UniProt Q9BYI3: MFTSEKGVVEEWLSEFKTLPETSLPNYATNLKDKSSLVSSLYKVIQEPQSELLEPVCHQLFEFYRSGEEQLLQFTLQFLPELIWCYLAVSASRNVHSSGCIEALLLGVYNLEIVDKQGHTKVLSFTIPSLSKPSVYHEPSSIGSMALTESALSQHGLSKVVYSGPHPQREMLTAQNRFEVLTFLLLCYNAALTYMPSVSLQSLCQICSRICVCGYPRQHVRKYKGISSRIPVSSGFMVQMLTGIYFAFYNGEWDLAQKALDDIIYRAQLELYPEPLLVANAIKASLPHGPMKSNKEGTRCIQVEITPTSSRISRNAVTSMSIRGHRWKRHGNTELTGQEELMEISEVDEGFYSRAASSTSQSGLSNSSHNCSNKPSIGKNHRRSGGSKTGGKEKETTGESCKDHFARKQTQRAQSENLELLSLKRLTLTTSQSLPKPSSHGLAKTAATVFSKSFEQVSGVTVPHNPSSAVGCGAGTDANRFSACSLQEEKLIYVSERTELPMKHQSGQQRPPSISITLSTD
UniProt O60645: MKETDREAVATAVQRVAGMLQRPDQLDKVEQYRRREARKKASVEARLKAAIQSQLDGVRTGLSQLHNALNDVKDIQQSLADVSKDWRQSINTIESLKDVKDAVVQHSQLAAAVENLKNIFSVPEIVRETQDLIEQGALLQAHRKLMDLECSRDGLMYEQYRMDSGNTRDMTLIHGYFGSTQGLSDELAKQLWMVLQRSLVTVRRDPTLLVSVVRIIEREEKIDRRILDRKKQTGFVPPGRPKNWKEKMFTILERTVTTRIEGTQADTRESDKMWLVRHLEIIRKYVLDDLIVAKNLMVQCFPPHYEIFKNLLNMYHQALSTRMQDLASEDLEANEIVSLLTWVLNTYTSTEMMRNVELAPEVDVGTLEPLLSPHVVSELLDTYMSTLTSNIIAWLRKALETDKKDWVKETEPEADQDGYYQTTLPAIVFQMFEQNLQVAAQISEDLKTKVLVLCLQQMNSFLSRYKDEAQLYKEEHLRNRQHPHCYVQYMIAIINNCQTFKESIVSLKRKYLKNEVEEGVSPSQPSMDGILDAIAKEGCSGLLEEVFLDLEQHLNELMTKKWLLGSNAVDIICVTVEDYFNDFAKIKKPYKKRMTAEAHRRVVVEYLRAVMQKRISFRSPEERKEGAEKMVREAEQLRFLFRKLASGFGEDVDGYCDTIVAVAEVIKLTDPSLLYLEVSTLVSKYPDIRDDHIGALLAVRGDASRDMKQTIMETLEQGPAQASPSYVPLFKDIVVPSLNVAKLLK
UniProt Q9H4H8: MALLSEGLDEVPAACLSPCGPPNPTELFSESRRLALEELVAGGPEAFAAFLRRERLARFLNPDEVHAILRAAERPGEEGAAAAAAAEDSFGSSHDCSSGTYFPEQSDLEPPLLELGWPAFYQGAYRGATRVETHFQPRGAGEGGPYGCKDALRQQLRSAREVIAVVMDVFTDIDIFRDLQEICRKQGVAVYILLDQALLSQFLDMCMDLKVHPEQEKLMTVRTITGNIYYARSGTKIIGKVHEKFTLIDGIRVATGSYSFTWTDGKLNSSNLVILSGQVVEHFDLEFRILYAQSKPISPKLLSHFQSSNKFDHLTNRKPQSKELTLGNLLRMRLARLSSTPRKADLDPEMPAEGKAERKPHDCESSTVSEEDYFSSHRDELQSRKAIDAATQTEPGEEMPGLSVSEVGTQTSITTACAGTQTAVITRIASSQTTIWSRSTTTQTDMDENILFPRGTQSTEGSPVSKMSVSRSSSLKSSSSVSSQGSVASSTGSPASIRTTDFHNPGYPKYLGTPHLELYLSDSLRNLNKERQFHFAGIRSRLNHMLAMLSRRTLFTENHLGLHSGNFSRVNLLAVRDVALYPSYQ
UniProt P38117: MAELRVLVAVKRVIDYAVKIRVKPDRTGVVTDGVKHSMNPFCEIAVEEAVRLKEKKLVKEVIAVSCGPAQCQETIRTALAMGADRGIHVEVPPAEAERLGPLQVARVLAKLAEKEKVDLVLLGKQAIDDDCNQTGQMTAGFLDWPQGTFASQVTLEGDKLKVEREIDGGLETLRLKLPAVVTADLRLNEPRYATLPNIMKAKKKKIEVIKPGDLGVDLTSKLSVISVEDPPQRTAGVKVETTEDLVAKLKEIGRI
UniProt Q8IWE2: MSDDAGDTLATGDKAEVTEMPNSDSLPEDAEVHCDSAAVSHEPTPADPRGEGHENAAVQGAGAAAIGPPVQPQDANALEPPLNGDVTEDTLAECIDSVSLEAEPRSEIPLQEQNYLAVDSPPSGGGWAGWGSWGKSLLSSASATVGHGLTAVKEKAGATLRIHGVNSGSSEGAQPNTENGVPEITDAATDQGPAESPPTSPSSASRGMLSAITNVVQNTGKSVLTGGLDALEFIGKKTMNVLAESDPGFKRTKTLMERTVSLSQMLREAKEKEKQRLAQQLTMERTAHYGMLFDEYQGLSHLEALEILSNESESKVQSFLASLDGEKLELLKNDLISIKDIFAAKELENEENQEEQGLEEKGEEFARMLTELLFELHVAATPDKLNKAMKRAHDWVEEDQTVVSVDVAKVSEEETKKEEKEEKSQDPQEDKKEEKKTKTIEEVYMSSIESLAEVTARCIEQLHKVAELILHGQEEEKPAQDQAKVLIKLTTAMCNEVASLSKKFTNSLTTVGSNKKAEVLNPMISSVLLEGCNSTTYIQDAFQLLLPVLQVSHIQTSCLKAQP

Key:
Assay in all cases: log2 fold change, soluble protein after heating vs DMSO (PISA); higher = thermal stabilisation; K562 lysate, 10 uM; active = over 0.2 and 3.5 SD of the protein, either way, in both replicates (recomputed)
[1] = compound: C1=CC=C(C=C1)[C@H](COC2=CC3=C(C=C2)NC(=O)N3)NC(=O)C4=CC=CN(C4=O)CC5=CC(=C(C=C5)F)F
Outline: (§1)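 A 30 min treatment with 10 μM compound was applied to crude K562 extract at 1 mg/mL protein in PBS pH 7.4 with 1 mM MgCl2. Heating for 3 min spanned 48°C-58°C, after which aliquots were pooled, adjusted to 0.5% NP-40 at 4°C and spun at 21,000xg for 90 min. TMTpro 16plex LC-MS/MS of the supernatant, with channel sums equalised, gave values recorded as log-two fold change in thermal stability against solvent controls, from duplicates.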

[2] = compound: CC1=C(SC2=C1C(=N[C@H](C3=NN=C(N32)C)CC(=O)N)C4=CC=C(C=C4)Cl)C
Outline: as §1

[3] = compound: CC1=C2C(=CC=C1)N=C(N(C2=O)C3=CC=CC=C3C)CN4C=NC5=C(N=CN=C54)N
Outline: as §1

[4] = compound: Cc1sc2c(c1C)C(c1ccc(Cl)cc1)=N[C@@H](CC(=O)OC(C)(C)C)c1nnc(C)n1-2
Outline: as §1

[5] = compound: c1ccc([C@@H]2C[C@H]2NC2CCNCC2)cc1
Outline: as §1

Measured: log2 fold change

FAM172A (UniProt Q8WUF8)
inactive: [1] 0.084 | [2] 0.043 | [3] 0.004 | [4] -0.157

FAM234A (UniProt Q9H0X4)
inactive: [1] 0.024 | [2] 0.03 | [3] -0.001 | [4] -0.104 | [5] 0.013

FAM241A (UniProt Q8N8J7)
inactive: [1] -0.229 | [2] 0.052 | [3] 0.148 | [4] 0.015 | [5] -0.161

EXTL2 (UniProt Q9UBQ6)
inactive: [1] 0.208 | [2] 0.235 | [3] -0.059 | [4] -0.185 | [5] 0.028

FAM32A (UniProt Q9Y421)
inactive: [1] 0.065 | [2] -0.016 | [3] -0.076 | [4] -0.007 | [5] -0.035

ERMP1 (UniProt Q7Z2K6)
inactive: [1] 0.028 | [2] 0 | [3] -0.029 | [4] -0.04 | [5] -0.055

ETF1 (UniProt P62495)
inactive: [1] 0.006 | [2] 0.012 | [3] 0.005 | [4] -0.007 | [5] -0.008

EXOSC9 (UniProt Q06265)
inactive: [1] -0.03 | [2] -0.001 | [3] 0.015 | [4] -0.019 | [5] -0.018

Quoted at random: 2 entries already listed.
EXTL2 (UniProt Q9UBQ6)
inactive: [1] 0.208 | [2] 0.235 | [3] -0.059 | [4] -0.185 | [5] 0.028

ERMP1 (UniProt Q7Z2K6)
inactive: [1] 0.028 | [2] 0 | [3] -0.029 | [4] -0.04 | [5] -0.055

Additional records follow:

FADS1, A0A0A0MR51
inactive: [1] 0.071 | [2] -0.019 | [3] -0.027 | [4] -0.035 | [5] 0.013

FADD (UniProt Q13158)
inactive: [1] -0.007 | [2] 0.073 | [3] -0.05 | [4] 0.028 | [5] -0.022

FAM210A (UniProt Q96ND0)
inactive: [1] 0.03 | [2] -0.001 | [3] -0.019 | [4] -0.002 | [5] -0.042

EWSR1 (UniProt H7BY36)
inactive: [1] -0.079 | [2] -0.06 | [3] 0.091 | [4] -0.058 | [5] 0.061

EXOC1 (UniProt Q9NV70)
inactive: [1] -0.011 | [2] 0.032 | [3] 0.013 | [4] 0.02 | [5] 0.068

EVL isoform 2 (UniProt Q9UI08)
inactive: [1] 0.063 | [2] -0.049 | [3] -0.01 | [4] -0.132 | [5] -0.01

ESYT1 isoform 2 (UniProt Q9BSJ8)
inactive: [1] 0.02 | [2] 0.003 | [3] -0.015 | [4] 0.022 | [5] 0.03

FAM118B (UniProt Q9BPY3)
inactive: [1] -0.025 | [2] -0.062 | [3] -0.01 | [4] -0.018 | [5] 0.01

FAF2 (UniProt Q96CS3)
inactive: [1] -0.032 | [2] -0.012 | [3] 0.03 | [4] 0.049 | [5] -0.059

FAM122A (UniProt Q96E09)
inactive: [1] 0.097 | [2] -0.011 | [3] -0.018 | [4] 0.095 | [5] -0.031

EXOSC4 (UniProt Q9NPD3)
inactive: [1] -0.01 | [2] 0.023 | [3] 0.04 | [4] -0.032 | [5] -0.004

FAM78A (UniProt Q5JUQ0)
inactive: [1] 0.094 | [2] 0.016 | [3] 0.048 | [4] -0.129 | [5] -0.089

FAAP100 (UniProt Q0VG06)
inactive: [1] 0.001 | [2] 0 | [3] 0.101 | [4] 0.01 | [5] -0.048

FAHD1 (UniProt Q6P587)
inactive: [1] -0.073 | [2] 0.013 | [3] -0.084 | [4] -0.003 | [5] -0.183

FAM126B (UniProt Q8IXS8)
inactive: [1] -0.119 | [2] 0.044 | [3] 0.121 | [4] 0.113 | [5] -0.111

FAM53B (UniProt Q14153)
inactive: [1] 0.044 | [2] -0.039 | [3] 0.055 | [4] -0.088 | [5] 0.022

ESS2 (UniProt Q96DF8)
inactive: [1] 0.064 | [2] 0.096 | [3] 0.016 | [4] -0.017 | [5] -0.045

FAM160A2 isoform 2 (UniProt Q8N612)
inactive: [1] 0.026 | [2] 0.028 | [3] 0.151 | [4] -0.068 | [5] -0.007

EXOSC1 (UniProt Q9Y3B2)
inactive: [1] 0.021 | [2] 0.04 | [3] -0.025 | [4] 0.013 | [5] 0.006

EXOSC7 (UniProt Q15024)
inactive: [1] 0.028 | [2] 0.024 | [3] -0.006 | [4] -0.072 | [5] -0.123

ERLIN2 (UniProt O94905)
inactive: [1] 0.009 | [2] -0.007 | [3] 0.016 | [4] -0.126 | [5] 0.143

FAH (UniProt P16930)
inactive: [1] 0.03 | [2] -0.012 | [3] -0.011 | [4] -0.006 | [5] -0.127

FAM192A (UniProt Q9GZU8)
inactive: [1] 0.011 | [2] -0.024 | [3] -0.042 | [4] 0.082 | [5] -0.061

ETFRF1 (UniProt Q6IPR1)
inactive: [1] 0.021 | [2] 0.058 | [3] -0.031 | [4] -0.02 | [5] 0.066

EXOC6 (UniProt Q8TAG9)
inactive: [1] -0.035 | [2] -0.022 | [3] -0.006 | [4] 0.037 | [5] 0.151

EZR (UniProt P15311)
inactive: [1] 0.013 | [2] 0.011 | [3] -0.015 | [4] 0.014 | [5] 0.051

FAM126A (UniProt Q9BYI3)
inactive: [1] -0.031 | [2] 0.136 | [3] 0.126 | [4] -0.098 | [5] -0.059

EXOC3 (UniProt O60645)
inactive: [1] -0.026 | [2] -0.019 | [3] 0.053 | [4] -0.017 | [5] 0.08

FAM136A (UniProt Q96C01)
inactive: [1] 0.049 | [2] -0.12 | [3] -0.029 | [4] -0.048 | [5] -0.002

EZH2 isoform 2 (UniProt Q15910)
inactive: [1] -0.05 | [2] -0.107 | [3] -0.001 | [4] -0.006 | [5] 0.163

EVI5 isoform 2 (UniProt O60447)
inactive: [1] -0.069 | [2] 0.05 | [3] -0.032 | [4] -0.021 | [5] 0.045

EYA3 (UniProt Q99504)
inactive: [1] -0.024 | [2] -0.011 | [3] -0.048 | [4] -0.027 | [5] -0.004

FAM83D (UniProt Q9H4H8)
inactive: [1] -0.021 | [2] 0.023 | [3] 0.035 | [4] -0.02 | [5] -0.006

FAM177A1 isoform 2 (UniProt Q8N128)
inactive: [1] -0.093 | [2] 0.05 | [3] -0.053 | [4] 0.002 | [5] 0.078

ERICH1 (UniProt Q86X53)
inactive: [1] -0.032 | [2] -0.229 | [3] 0.008 | [4] -0.038 | [5] -0.014

FAM185A (UniProt Q8N0U4)
inactive: [1] -0.004 | [2] -0.025 | [3] 0.086 | [4] 0.018 | [5] -0.02

Reprinted from above (2 entries):
ERMP1 (UniProt Q7Z2K6)
inactive: [1] 0.028 | [2] 0 | [3] -0.029 | [4] -0.04 | [5] -0.055

ETF1 (UniProt P62495)
inactive: [1] 0.006 | [2] 0.012 | [3] 0.005 | [4] -0.007 | [5] -0.008

Later entries.

ERLIN1 (UniProt O75477)
inactive: [1] -0.03 | [2] 0.039 | [3] 0.02 | [4] 0.029 | [5] -0.033

FAM83A (UniProt Q86UY5)
inactive: [1] 0.065 | [2] -0.023 | [3] 0.063 | [4] 0.11 | [5] -0.039

F5 (UniProt P12259)
inactive: [1] -0.041 | [2] 0 | [3] 0.049 | [4] -0.105 | [5] -0.022

ETFB (UniProt P38117)
inactive: [1] 0 | [2] 0.012 | [3] -0.006 | [4] -0.03 | [5] -0.04

EXOSC5 (UniProt Q9NQT4)
inactive: [1] -0.034 | [2] 0.01 | [3] 0.048 | [4] -0.008 | [5] 0.022

FAM102B (UniProt Q5T8I3)
inactive: [1] -0.052 | [2] 0.099 | [3] 0.009 | [5] -0.035

FAH isoform 2 (UniProt P16930)
inactive: [1] -0.151 | [2] 0.024 | [3] -0.034 | [4] 0.025 | [5] -0.299

EXT2 isoform 3 (UniProt Q93063)
inactive: [1] 0.085 | [2] -0.038 | [3] -0.044 | [4] -0.044 | [5] -0.039

FAM114A1 (UniProt Q8IWE2)
inactive: [1] -0.076 | [2] 0.136 | [3] 0.085 | [4] 0.032 | [5] -0.063
